From patent publication US5643877A, “Compounds comprising gonadotropin releasing hormone (GnRH) and methods for controlling reproduction in fish” (University of Maryland Biotechnology Institute, priority 1994, dated 1997)
Part of at least one peptide drawing is inferred or uncertain, most often the ends. Square brackets hold non-standard residues; d marks the D form. Peptide text beside a SMILES is read from it. pGlu = O=C1CC[C@@H](C(=O)O)N1

Test system: GtH-II secretion in female gilthead seabream
Assay: In vivo gonadotropin-releasing potency: plasma GtH-II by homologous radioimmunoassay after intramuscular injection of GnRH peptides
Set-up: species or system Sparus aurata
Conditions: for GtH-II secretion, times higher than that induced by the two sbGnRH analogs: third experiment; for GtH-II secretion, times higher than that induced by the two sbGnRH analogs / blood GtH-II levels, times higher than in control females: 5 μg/kg body weight; for GtH-II levels, times higher than in saline-injected fish: 25 μg/kg body weight
Experimental: During the spawning season, 104 female seabream at 2 years of age, weighing 458±104 g, with preovulatory oocytes of 500-600 μm in diameter were selected for experimentation. Oocyte developmental stage was determined by microscopic examination of a freshly removed ovarian biopsy, as previously described (Zohar et al., 1979, J. Fish Biol. 15:665-670). The bioactivity of the native forms of GnRH and of the GnRH analogs was studied in three consecutive experiments, carried out on day 1, day 3, and day 8. The first experiment included four groups of eight females. Three groups were injected with 5 μg/kg body weight of either sbGnRH, sGnRH or cGnRH-II. The fourth group was injected with saline. The second experiment included four similar groups, except that the peptides were injected at a dose of 25 μg/kg body weight. The third experiment included five groups, each with eight females. One group was injected with native sbGnRH; two other groups were each injected with an analog of sbGnRH, the [D-Ala^6,Pro^9 -NEt]-sbGnRH and [D-Arg^6,Pro^9 -NEt]-sbGnRH; another group was injected with the analog of the mammalian GnRH, [D-Ala^6,Pro^9 -NEt]-mGnRH; and the last group was injected with saline. All peptides in the third experiment were injected at a dose of 5 μg/kg body weight.
In all experiments, the tested peptides were injected into the dorsal musculature, in a volume of 0.5 ml/kg body weight. Each group of fish was held in a separate 600 liter tank exposed to natural photoperiod conditions and supplied with sea water at 20° C. Fish were bled before the injection of the peptides and at 1.5, 4 and 8 hours post-injection. At each bleeding time, 1 ml of blood was removed from the caudal vessels, using a 1 ml syringe fit with a 21G needle. Prior to injection and bleeding, fish were anesthetized in 0.2 ppt of 2-phenoxy-ethanol. Blood was immediately centrifuged and plasma removed and frozen. Levels of seabream GtH-II in the plasma samples were measured using a homologous and specific radioimmunoassay, as previously described (Zohar et al., 1990, Aquaculture 88:189-204). Blood GtH-II levels in the various groups were statistically compared using ANOVA followed by Duncan new multiple range comparison test.

In the case of `CCNC(=O)[C@@H]1CCCN1C(=O)[C@H](CCCNC(=N)N)NC(=O)[C@H](CC(C)C)NC(=O)[C@@H](C)NC(=O)[C@H](Cc1ccc(O)cc1)NC(=O)[C@H](CO)NC(=O)[C@H](Cc1c[nH]c2ccccc12)NC(=O)[C@H](Cc1c[nH]cn1)NC(=O)[C@@H]1CCC(=O)N1` [[D-Ala^6, Pro^9 -NEt]-mGnRH], the “GtH-II secretion, times higher than that induced by the two sbGnRH analogs” value (“GtH-II secretion … by the two sbGnRH analogs” for short) (1.5 hours post-injection) is reported as 5-6 times, the “GtH-II secretion … by the two sbGnRH analogs” value (4 hours post-injection) is reported as 4-7 times and the “GtH-II secretion … by the two sbGnRH analogs” value (8 hours post-injection) is reported as 2.5-4.5 times.

In the case of `CC(C)C[C@H](NC(=O)[C@H](Cc1c[nH]c2ccccc12)NC(=O)CNC(=O)[C@H](Cc1ccc(O)cc1)NC(=O)[C@H](CO)NC(=O)[C@H](Cc1c[nH]c2ccccc12)NC(=O)[C@H](Cc1c[nH]cn1)NC(=O)[C@@H]1CCC(=O)N1)C(=O)N1CCC[C@H]1C(=O)NCC(N)=O` [sGnRH] ([pGlu]HWSYGWLPG-NH2), the “blood GtH-II levels, times higher than in control females” value (1.5 hours post-injection) is reported as 8.35 times, the “blood GtH-II levels, times higher than in control females” value (4 hours after injection) is reported as 2.5 times and the “potency in inducing GtH-II secretion, times more potent than sbGnRH” value (5 μg/kg dose, 1.5 hr after injection) is reported as “around 5 times”. The “GtH-II-releasing potency of the native peptides compared (in words)” value (25 μg/kg body weight, 1.5, 4 and 8 hours post-injection) was “cGnRH-II>sGnRH>sbGnRH”, the “GtH-II levels, times higher than in saline-injected fish” value (1.5 hr after injection) was 15.8 times and the “GtH-II levels, times higher than in saline-injected fish” value (4 hr after injection) was 7.8 times. For the same compound, the “potency in inducing GtH-II secretion, times more potent than sbGnRH” value (25 μg/kg dose, 1.5 hr after injection) was 3.5 times, the “GtH-II-releasing potency of the native peptides compared (in words)” value (native GnRH forms, 5 and 25 μg/kg body weight) was “significantly more potent than the novel sbGnRH” and the “stimulation of GtH-II secretion (in words)” value (reproductively mature seabream females, native peptides injected at 5 and 25 μg/kg body weight) was “significantly stimulate GtH-II secretion”.
